This is an account of results in PMC11404819.

No constants are given. Whether binding was seen depends on the method and setting. Some binding calls cover weakened binding; strength is not graded here.

The assay deals with T1, C-terminal truncation of Ffh (residues 1-432) (UniProt P0AGD7).
T1 sequence: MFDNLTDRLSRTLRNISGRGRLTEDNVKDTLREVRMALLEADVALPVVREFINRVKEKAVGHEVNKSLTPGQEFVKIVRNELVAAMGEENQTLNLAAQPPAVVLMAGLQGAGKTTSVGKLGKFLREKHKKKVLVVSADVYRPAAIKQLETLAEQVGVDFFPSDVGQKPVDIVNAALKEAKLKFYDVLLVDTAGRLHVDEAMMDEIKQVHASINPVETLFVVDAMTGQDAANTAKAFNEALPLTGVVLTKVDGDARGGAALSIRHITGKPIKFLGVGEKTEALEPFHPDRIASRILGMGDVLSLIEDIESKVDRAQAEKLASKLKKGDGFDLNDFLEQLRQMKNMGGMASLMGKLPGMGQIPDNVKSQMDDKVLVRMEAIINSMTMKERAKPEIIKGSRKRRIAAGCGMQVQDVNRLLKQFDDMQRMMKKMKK
The assay can be described thus: native gel or EMSA; 20 nM Cy5-labelled 4.5S RNA, 200 nM Ffh incubated with the RNA for 10 min at room temperature, then 400 nM FtsYNG added; 1 mM GMP-PNP, 50 mM HEPES pH 7.5, 150 mM KCl, 1.5 mM MgCl2, 10% glycerol, 0.01% Igepal; 6% polyacrylamide gel run at 4°C; both purified. For orientation: A gel shift assay detects complexes by their altered migration in electrophoresis.

B1: NG domain of FtsY (residues 196-498) (domain or fragment, UniProt P10121 196-497)
chain: FARLKRSLLKTKENLGSGFISLFRGKKIDDDLFEELEEQLLIADVGVETTRKIITNLTEGASRKQLRDAEALYGLLKEEMGEILAKVDEPLNVEGKAPFVILMVGVNGVGKTTTIGKLARQFEQQGKSVMLAAGDTFRAAAVEQLQVWGQRNNIPVIAQHTGADSASVIFDAIQAAKARNIDVLIADTAGRLQNKSHLMEELKKIVRVMKKLDVEAPHEVMLTIDASTGQNAVSQAKLFHEAVGLTGITLTKLDGTAKGGVIFSVADQFGIPIRYIGVGERIEDLRPFKADDFIEALFARED
Consider B1, for which the binding result was “binds”.
